# Reference: patent publication US7192975B2, “Arylimidazole derivatives, preparation and therapeutic used thereof” (Societe de Conseils de Recherches Et d''Applications …, priority 2002, dated 2007)
# Structures can show the parent of a compound that is named as a salt. Where two headings read alike, the source gives them in different places. Some results were stated once for a whole list of compounds, not compound by compound.
# Tested on: voltage-dependent sodium channels
# Type: binding, rat
# [1] = binding of [3H]batrachotoxin-A 20-alpha benzoate, rat cerebral cortex homogenate
SMILES,IC50 [1],IC50
"Cl.NC(=Nc1ccc(-c2c[nH]c(CNC3CCCCCC3)n2)cc1)c1cccs1 [Example 20, N′-(4-{2-[(cycloheptylamino)methyl]-1H-imidazol-4-yl}phenyl)thiophene-2-carboximidamide hydrochloride]",≤ 10 µM,
"Cl.NC(=Nc1ccc(-c2c[nH]c(CNCC(c3ccccc3)c3ccccc3)n2)cc1)c1cccs1 [Example 23, N′[4-(2-{[(2,2-diphenylethyl)amino]methyl}-1H-imidazol-4-yl)phenyl]thiophene-2-carboximidamide hydrochloride]",≤ 10 µM,
"NC(=Nc1cccc(-c2c[nH]c(CSc3ccccc3)n2)c1)c1cccs1 [Example 25, N′-(3-{2-[(phenylthio)methyl]-1H-imidazol-4-yl}phenyl)thiophene-2-carboximidamide hydrochloride]",≤ 10 µM,
"N=C(Nc1cccc(-c2c[nH]c(CCC3CCCCC3)n2)c1)c1cccs1 [Example 13, N-{3[2-(2-cyclohexlethyl)-1H-imidazol-4-yl]phenyl}thiophene-2-carboximidamide hydrochloride]",≤ 10 µM,
"NC(=N[N+](=O)[O-])Nc1ccc(-c2c[nH]c(CCC3CCCCC3)n2)cc1 [Example 19, N{4-[2-(2-cyclohexylethyl)-1H-imidazol-4-yl]phenyl}N″-nitroguanidine hydrochloride]",,≤ 10 µM
"Cl.NC(=Nc1ccc(-c2c[nH]c(CNC3CCC3)n2)cc1)c1cccs1 [Example 22, N′-(4-{2-[(cyclobutylamino)methyl]-1H-imidazol-4-yl}phenyl)thiophene-2-carboximidamide hydrochloride]",≤ 10 µM,
"NC(=Nc1cccc(-c2c[nH]c(CNC3CCCCC3)n2)c1)c1cccs1 [Example 6, N′-(3{2-[cyclohexylamino)methyl]-1H-imidazol-4-yl}phenyl)thiophene-2-carboximidamide hydrochloride]",≤ 10 µM,
"CN(Cc1nc(-c2ccc(N=C(N)c3cccs3)cc2)c[nH]1)C1CCCCC1.Cl [Example 7, N′-[4-(2-{[cyclohexyl(methyl)amino]methyl}-1H-imidazol-4-yl)phenyl]thiophene-2-carboximidamide hydrochloride]",≤ 10 µM,
"Cl.NC(=Nc1ccc(-c2c[nH]c(CCC3CCCCC3)n2)cc1)c1cccs1 [Example 15, N′-{4-[2-(2-cyclohexylethyl)-1H-imidazol-4-yl]phenyl}thiophene-2-carboximidamide hydrochloride]",≤ 10 µM,
"CCCCOC(=O)NCCc1nc(-c2ccc(-c3ccc(N=C(N)c4cccs4)cc3)cc2)c[nH]1 [Example 3, butyl 2-[4-(4′-{[(1Z)-amino(thien-2-yl)methylene]amino}-1,1′-biphenyl-4-yl-1H-imidazol-2-yl]ethylcarbamate hydrochloride]",≤ 10 µM,
"NC(=Nc1cccc(-c2c[nH]c(CC3CCCCC3)n2)c1)c1cccs1 [Example 16, N′-{3-[2-(cyclohexylmethyl)-1H-imidazol-4-yl]phenyl}thiophene-2-carboximidamide hydrochloride]",≤ 10 µM,
"Cl.NC(=Nc1ccc(-c2c[nH]c(CN(Cc3ccccc3)Cc3ccccc3)n2)cc1)c1cccs1 [Example 8, N′-(4{2-[(dibenzylamino)methyl]-1H-imidazol-4-yl}phenyl)thiophene-2-carboximidamide hydrochloride]",≤ 10 µM,
"Cl.NC(=Nc1ccc(-c2c[nH]c(CCNC3CCCCC3)n2)cc1)c1cccs1 [Example 5, N′-(4-{2-[2-(cyclohexylamino)ethyl]-1H-imidazol-4-yl}phenyl)thiophene-2-carboximidamide hydrochloride]",≤ 10 µM,
"CC(C)Cc1ccc(Cc2nc(-c3cccc(N=C(N)c4cccs4)c3)c[nH]2)cc1.Cl [Example 27, N′-{3-[2-(4-isobutylbenzyl)-1H-imidazol-4-yl]phenyl}thiophene-2-carboximidamide hydrochloride]",≤ 10 µM,
"CCCCCC(CCCCC)c1nc(-c2cccc(N=C(N)c3cccs3)c2)c[nH]1.Cl [Example 14, N′-{3-[2(1-pentylhexyl)-1H-imidazol-4-yl]phenyl}thiophene-2-carboximidamide hydrochloride]",≤ 10 µM,
"CCCCCCc1nc(-c2cccc(N=C(N)c3cccs3)c2)c[nH]1 [Example 18, N′-[3-(2-hexyl-1H-imidazol-4-yl)phenyl]thiophene-2-carboximidamide hydrochloride]",≤ 10 µM,
"Cl.NC(=Nc1cccc(-c2c[nH]c(C/N=C(/N)c3cccs3)n2)c1)c1cccs1 [Example 11, N′-{3[2-({[(1E)-amino(thien-2-yl)methylene]-amino}methyl)-1H-imidazol-4-yl]phenyl}thiophene-2-carboximidamide hydrochloride]",≤ 10 µM,
"Cl.NC(=Nc1ccc(-c2c[nH]c(C/N=C(/N)c3cccs3)n2)cc1)c1cccs1 [Example 12, N′-{4-[2-({[(1E)-amino(thien-2-yl)methylene]-amino}methyl)-1H-imidazol-4-yl]phenyl}thiophene-2-carboximidamide hydrochloride]",≤ 10 µM,
"CCCCN(CCc1nc(-c2ccc(/N=C(\N)c3cccs3)cc2)c[nH]1)C(=O)O [Example 1, butyl-2-[4-(4-{[(1Z)-amino(thien-2-yl)methylene]-amino}phenyl)-1H-imidazol-2-yl]ethylcarbamate hydrochloride]",≤ 10 µM,
"Cl.NC(=Nc1ccc(-c2c[nH]c(CNCc3ccccc3)n2)cc1)c1cccs1 [Example 9, N′-(4-{2-[(benzylamino)methyl]-1H-imidazol-4-yl}phenyl)thiophene-2-carboximidamide hydrochloride]",≤ 10 µM,
"NC(=Nc1ccc(-c2c[nH]c(CSc3ccccc3)n2)cc1)c1cccs1 [Example 26, N′-(4-{2-[(phenylthio)methyl]-1H-imidazol-4-yl}phenyl)thiophene-2-carboximidamide hydrochloride]",≤ 10 µM,
"Cl.NC(=Nc1cccc(-c2c[nH]c(CC/N=C(/N)c3cccs3)n2)c1)c1cccs1 [Example 24, N′-{3-[2-(2{[(1E)-amino(thien-2-yl)methylene]amino}ethyl)-1H-imidazol-4-yl]phenyl}thiophene-2-carboximidamide hydrochloride]",≤ 10 µM,
"Cl.NC(=Nc1cccc(-c2c[nH]c(CCCC3CCCCC3)n2)c1)c1cccs1 [Example 17, N′-{3-[2-(3-cyclohexylpropyl)-1H-imidazol-4-yl]phenyl}thiophene-2-carboximidamide hydrochloride]",≤ 10 µM,
"NC(=Nc1ccc(-c2c[nH]c(CNC3CCCCC3)n2)cc1)c1cccs1 [Example 4, N′-(4-{2-[(cyclohexylamino)methyl]-1H-imidazol-4-yl}phenyl)thiophene-2-carboximidamide hydrochloride]",≤ 10 µM,
